Data published in article PMC10340229, “EpoR Activation Stimulates Erythroid Precursor Proliferation by Inducing Phosphorylation of Tyrosine-88 of the CDK-Inhibitor p27^Kip1” (Cells, 2023).
No constants are given. Whether binding was seen depends on the method and setting. For part of these data: In cells and extracts the contact can be indirect. Some entries that bind do so weakly or less than the wild type. Where a sequence is shown, tags or fusion partners need not be part of it. One block for each molecule: values may come before it.

Sequences of proteins named here, by UniProt entry; tags and fusion partners are left off. A change or cut given only in a name is not applied to a line headed by its entry.
UniProt P46527: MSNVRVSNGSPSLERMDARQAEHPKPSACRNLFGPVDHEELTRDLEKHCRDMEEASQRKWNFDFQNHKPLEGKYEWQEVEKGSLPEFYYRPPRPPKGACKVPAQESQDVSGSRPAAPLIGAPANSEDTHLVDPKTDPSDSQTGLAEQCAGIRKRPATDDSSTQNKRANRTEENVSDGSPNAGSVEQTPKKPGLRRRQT

Experiments:
[1] = biological target: T1, GST–hIC EpoR (273–508aa), cytoplasmic domain of human EpoR (human) (UniProt P19235); experiment: pull-down; GST fusion proteins bound on glutathione Sepharose beads incubated for 2 h at 4 °C with purified bacterial p27, p27 mutants or p27 fragments; extensive washing; bound p27 detected by Western blot; both purified
T1 sequence: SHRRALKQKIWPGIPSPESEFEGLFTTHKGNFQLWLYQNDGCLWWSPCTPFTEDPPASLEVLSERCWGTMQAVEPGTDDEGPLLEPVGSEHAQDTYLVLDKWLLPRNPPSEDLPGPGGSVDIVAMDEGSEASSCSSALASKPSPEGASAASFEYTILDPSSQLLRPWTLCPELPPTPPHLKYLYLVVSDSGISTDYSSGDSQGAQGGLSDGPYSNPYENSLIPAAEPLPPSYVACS

[2] = biological target: T1, GST–hIC EpoR (273–508aa), cytoplasmic domain of human EpoR (human); experiment: pull-down; unpublished data: 'under these conditions' (bacterial recombinant proteins), Y88–phosphorylated p27 with EpoR; both purified
[3] = biological target: Flag–tagged p27 (p27^Kip1, CDKN1B) (human) (UniProt P46527); experiment: co-IP; HEK–293T cells co-transfected with Flag–p27, HA–EpoR and/or untagged Jak2 for 48 h; lysis in 50 mM HEPES pH 7.5, 150 mM NaCl, 1% Triton; anti–Flag M2 Affinity Gel 90 min at 4 °C in 0.5% Triton; Western blot

binding [1]: no binding
Molecule: His–tagged p27 C–terminus (amino acids 97–198) (from UniProt P46527 97-198) (domain or fragment)

binding [2]: binds
Molecule: Y88–phosphorylated p27 (from UniProt P46527 1-198)

binding [3]: binds
B1: HA–tagged EpoR (erythropoietin receptor) (receptor, UniProt P19235 25-508)
chain: APPPNLPDPKFESKAALLAARGPEELLCFTERLEDLVCFWEEAASAGVGPGNYSFSYQLEDEPWKLCRLHQAPTARGAVRFWCSLPTADTSSFVPLELRVTAASGAPRYHRVIHINEVVLLDAPVGLVARLADESGHVVLRWLPPPETPMTSHIRYEVDVSAGNGAGSVQRVEILEGRTECVLSNLRGRTRYTFAVRARMAEPSFGGFWSAWSEPVSLLTPSDLDPLILTLSLILVVILVLLTVLALLSHRRALKQKIWPGIPSPESEFEGLFTTHKGNFQLWLYQNDGCLWWSPCTPFTEDPPASLEVLSERCWGTMQAVEPGTDDEGPLLEPVGSEHAQDTYLVLDKWLLPRNPPSEDLPGPGGSVDIVAMDEGSEASSCSSALASKPSPEGASAASFEYTILDPSSQLLRPWTLCPELPPTPPHLKYLYLVVSDSGISTDYSSGDSQGAQGGLSDGPYSNPYENSLIPAAEPLPPSYVACS
